Data source: PubChem BioAssay AID1053208 (Peter MacCallum Cancer Centre, 2014)
Aim: 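Synthetic lethal interactions between gene loss and doxorubicin in osteosarcoma cells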 (primary screen). Cell system: mouse osteosarcoma cells, early-passage culture from an engineered mouse model of fibroblastic bone tumour. Knock-down reagent: siRNA pool against mouse genes, 40 nM. Time to read-out: about 120 h (48 h before drug, then 72 h with drug). Challenge: doxorubicin 100 nM for 72 h, roughly 30-40% inhibitory dose. Measurement: 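Viability read as ATP luminescence after 72 h of 100 nM doxorubicin or none, duplicate wells averaged, scaled to non-targeting siRNA, then expressed as robust z-scores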. Scale: viability z-score with doxorubicin and doxorubicin viability vs non-targeting: higher = more viable cells under doxorubicin; viability z-score without drug: higher = more viable cells with knock-down alone; z-score of drug to no-drug ratio: higher = less drug sensitisation by knock-down. Call rule: 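a pool counts as active when its viability z-score with doxorubicin is -2 or below and its z-score without drug lies between -2 and 2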.
Shown is a random part of about 17,000 reagents. 788 of them (4.7%) count as active. 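Calls rest on z-score classes alone; an extra cut-off of viability at most 70% of control was not applied to them.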 Unmarked entries are inactive. Reagents against one gene are numbered here.

target	reagent	combined z-score class	viability z-score with doxorubicin	viability z-score without drug	z-score of drug to no-drug ratio	doxorubicin viability vs non-targeting
Pfdn1	1	no change with or without drug	1.57	0	1.8	1.08
Arhgap44	1	no change with or without drug	-0.67	-0.34	-0.34	0.88
Ube2q2	1	no change with or without drug	-1.57	-0.51	-1.24	0.8
Etv2	1	no change with or without drug	-0.22	0.51	-0.45	0.92
Fbxw11	1	no change with or without drug	1.12	0.51	0.9	1.04
Slfn1	1	no change with or without drug	-0.9	-0.51	-0.56	0.86
Bpgm	1	no change with or without drug	0	-0.51	0.45	0.94
Smoc1	1	no change with or without drug	-1.01	-1.69	0.22	0.85
Wnt16	1	no change with or without drug	-0.45	-0.17	-0.22	0.9
A930018M24Rik	1	no change with or without drug	-0.79	0.51	-1.01	0.87
Cmas	1	no change with or without drug	-1.12	-0.17	-1.01	0.84
Tas2r113	1	no change with or without drug	0.9	-0.84	1.69	1.02
Sorcs2	1	no change with or without drug	0.9	0.17	0.9	1.02
Zfp521	1	no change with or without drug	0.45	0.51	0.22	0.98
Gins4	1	no change with or without drug	0.22	0.84	-0.22	0.96
Prdm1	1	no change with or without drug	0.9	1.35	0.11	1.02
Foxa2	1	no change with or without drug	-0.9	1.35	-1.69	0.86
Wdr20rt	1	low cell count with doxorubicin only (active)	-2.36	-1.18	-1.69	0.73
Unc93a	1	no change with or without drug	-1.35	-1.01	-0.67	0.82
Gfus	1	no change with or without drug	-1.69	-0.17	-1.57	0.79
Fgd4	1	no change with or without drug	0.45	1.01	-0.11	0.98
Mybl2	1	no change with or without drug	-0.67	-0.17	-0.45	0.88
Abcc9	1	no change with or without drug	-0.67	-0.34	-0.34	0.88
Rab3il1	1	no change with or without drug	1.57	1.18	0.9	1.08
Rab3il1	2	no change with or without drug	-1.69	-1.18	-0.9	0.79
Adprm	1	no change with or without drug	-0.67	1.69	-1.57	0.88
Sult2b1	1	no change with or without drug	0	0.84	-0.45	0.94
Upp2	1	no change with or without drug	-0.9	-0.84	-0.22	0.86
Tpst1	1	no change with or without drug	1.12	-0.51	1.69	1.04
Hsd17b10	1	no change with or without drug	-0.34	-1.18	0.56	0.91
Gatm	1	low cell count with doxorubicin only (active)	-2.7	-1.18	-2.02	0.7
Eif2d	1	no change with or without drug	-0.22	1.18	-0.9	0.92
Gnaq	1	no change with or without drug	-0.79	0.34	-0.9	0.87
Ankrd13b	1	no change with or without drug	0	-0.67	0.56	0.94
9330132A10Rik	1	low cell count with doxorubicin only (active)	-2.36	-1.52	-1.46	0.73
Ctsl	1	no change with or without drug	0.45	0.51	0.22	0.98
Dnajc14	1	no change with or without drug	-0.79	0.17	-0.79	0.87
Clic3	1	no change with or without drug	0.45	0.17	0.45	0.98
S100a16	1	no change with or without drug	0.45	0.51	0.22	0.98
Rdh9	1	no change with or without drug	0.56	-0.84	1.35	0.99
Klk1b5	1	high cell count with and without drug	2.47	2.19	1.01	1.16
Gucy1b2	1	no change with or without drug	0.45	0.17	0.45	0.98
Oaf	1	no change with or without drug	0	-0.34	0.34	0.94
Twsg1	1	low cell count with doxorubicin only (active)	-2.59	-1.52	-1.69	0.71
Mlxip	1	high cell count with doxorubicin only	2.59	1.69	1.46	1.17
Spag9	1	no change with or without drug	0.67	-0.17	0.9	1
Tusc2	1	no change with or without drug	-0.45	1.18	-1.12	0.9
Khdc1a	1	no change with or without drug	0.22	0.51	0	0.96
Grin2a	1	no change with or without drug	0.22	-0.34	0.56	0.96
Or7e169	1	no change with or without drug	0.22	0.51	0	0.96

Laid out differently: results already given
{"target":"Rdh9","reagent":1,"combined z-score class":"no change with or without drug","viability z-score with doxorubicin":0.56,"viability z-score without drug":-0.84,"z-score of drug to no-drug ratio":1.35,"doxorubicin viability vs non-targeting":0.99}
{"target":"Klk1b5","reagent":1,"combined z-score class":"high cell count with and without drug","viability z-score with doxorubicin":2.47,"viability z-score without drug":2.19,"z-score of drug to no-drug ratio":1.01,"doxorubicin viability vs non-targeting":1.16}
{"target":"Gucy1b2","reagent":1,"combined z-score class":"no change with or without drug","viability z-score with doxorubicin":0.45,"viability z-score without drug":0.17,"z-score of drug to no-drug ratio":0.45,"doxorubicin viability vs non-targeting":0.98}
{"target":"Oaf","reagent":1,"combined z-score class":"no change with or without drug","viability z-score with doxorubicin":0,"viability z-score without drug":-0.34,"z-score of drug to no-drug ratio":0.34,"doxorubicin viability vs non-targeting":0.94}
{"target":"Twsg1","reagent":1,"combined z-score class":"low cell count with doxorubicin only (active)","viability z-score with doxorubicin":-2.59,"viability z-score without drug":-1.52,"z-score of drug to no-drug ratio":-1.69,"doxorubicin viability vs non-targeting":0.71}
{"target":"Mlxip","reagent":1,"combined z-score class":"high cell count with doxorubicin only","viability z-score with doxorubicin":2.59,"viability z-score without drug":1.69,"z-score of drug to no-drug ratio":1.46,"doxorubicin viability vs non-targeting":1.17}
{"target":"Spag9","reagent":1,"combined z-score class":"no change with or without drug","viability z-score with doxorubicin":0.67,"viability z-score without drug":-0.17,"z-score of drug to no-drug ratio":0.9,"doxorubicin viability vs non-targeting":1}
